Patent US20220017616A1
No constants are given. Whether binding was seen depends on the method and setting. Binding can be weak; no strength is given.

Assays:
[1] = target: cynomolgus monkey CD112R (cynomolgus monkey); assay: flow cytometry, recombinant cyno CD112R transiently expressed on HEK293T cells
[2] = target: cynomolgus monkey CD112R (cynomolgus monkey); assay: flow cytometry on primary cyno T-cells
human CD112R (human) [3] = assay: flow cytometry, human CD112R transiently expressed on 293T cells
[4] = target: cynomolgus monkey CD112R (cynomolgus monkey); assay: flow cytometry, titration on activated cyno PBMCs
human CD112R (human) [5] = assay: flow cytometry, titration on activated primary human T cells

Measured: binding

B1: 1E1 (antibody, V domains shown)
VH: QVQLVQSGAEVKKPGASVKVSCQASGYTFTDYYIYWVRQAPGQGLEWMGWINPNSGGTNYAQKFQGRVTMTRDTSISTAYIELSRLRSDDTAVYYCAREDNFNGMDVWGQGTTVTVSS
VL: DIQMTQSPSSLSASVGDRVTITCRASQGIRNDLGWYQQKPGKAPKRLIYAASSLQSGVPSRFSGSGSGTEFTLTISSLQPEDFATYYCLQLNSYPLTFGGGTKVEIKR
binds: [1] | [2] | human CD112R (human) [3] | [4] | human CD112R (human) [5]
